System: human colon carcinoma cell line, HCT116
Assay: Cancer cell proliferation, SRB assay
Assay type: cell-based
Details: CC50(μM)/EC50(μM), MRC-5 vs HCT116
Method: In order to examine the suppressive effect of the inventive aminopyrimidine derivatives on the proliferation of cancer cells through inhibiting the protein kinase activity, a test was performed as follows by employing human colon carcinoma cell line, HCT116 (Korean Cell Line Bank, KCLB10247) and human fetal cell line, MRC-5 (Korean Cell Line Bank, KCLB10171).
HCT116 and MRC-5 cells were plated into the wells of a 96-well plate containing DMEM (Dulbecco's Modified Eagle Medium) medium at a concentration ranging from 1×10^3 to 3×10^3 cells/well, and cultured under conditions of 5% CO2 and 37° C. for 24 hours. Then, the test compounds of Examples 85 to 88, 97 to 99, 105 to 110 and 115 to 118, and a comparative compound, N-(4-(4-(5-methyl-1H-pyrrole-3-yl-amino)-6-(4-methylpiperazin-1-yl)-1,3,5-triazin-2-ylthio) cyclopropane carboxyamide were added thereto in an amount of 0.2, 1, 5, 25 and 100 μM, respectively. The control was not treated with any compound. The cells were cultured for 48 hours.
After removing the medium from each wells, the cells were washed about 3 times with phosphate-buffered saline (PBS, pH 7.4), followed by fixing with 50% TCA (trichloroacetic acid) refrigerant solution in an amount of 50 μl/well at 4° C. for 1 hour. The fixed cells were washed 5 times with distilled water and dried in the air, and stained with 50 μl/well of 1% acetic acid containing 0.4% SRB (sulforhodamine B) solution at room temperature for 1 hour. The stained cells were washed 5 times with 1% acetic acid and dried in the air, 150 μl/well of 10 mM Tris-HCl (pH 10.5) were added thereto, and the absorbance of each well was measured at 540 nm. The suppressive value of each compound for cell proliferation was calculated based on the absorbance of the control well, and the results are shown in Table 2. In Table 2, EC50 (μM) was determined as a concentration of the test compound required to inhibit cancer cell proliferation by 50% relative to the control, CC50 (μM) was determined as a concentration of the test compound required to inhibit normal cell proliferation by 50% relative to the control, and the therapeutic index was determined as the value of CC50(μM)/EC50(μM).

Question: How did the Therapeutic index turn out when `CC1(C)C2CCC1(C)C(NC(=O)c1ccnc(Nc3ccc(N4CCCCC4)cc3)n1)C2` (centres unmarked) [Compound 85, 2-(4-(piperidine-1-yl)phenylamino)-N-(1,7,7-trimethylbicyclo[2.2.1]heptane-2-yl)pyrimidine-4-carboxyamide] was run?
Answer: 23.8

Question: `CCCN1CCN(c2ccc(Nc3nccc(C(=O)NC4CC5CCC4(C)C5(C)C)n3)cc2)CC1` (centres unmarked) [Compound 110, 2-(4-(4-propylpiperazin-1-yl)phenylamino)-N-(1,7,7-trimethylbicyclo[2.2.1]hep-tan-2-yl)pyrimidine-4-carboxyamide] was tested. Which Therapeutic index did it give?
Answer: 16.8

Question: With `CC1(C)C2CCC1(C)C(NC(=O)c1ccnc(Nc3cccc(NCCCN4CCOCC4)c3)n1)C2` (centres unmarked) [Compound 97, 2-(3-(3-morpholinopropylamino)phenylamino)-N-(1,7,7-trimethylbicyclo[2.2.1]hep-tan-2-yl)pyrimidine-4-carboxyamide] as the compound, how does the Therapeutic index read?
Answer: >33.3

Question: For `COc1ccc(Nc2nccc(C(=O)NC3CC4CCC3(C)C4(C)C)n2)cc1OCCN1CCOCC1` (centres unmarked) [Compound 99, 2-(4-methoxy-3-(2-morpholinoethoxy)phenyl-amino)-N-(1,7,7-trimethylbicyclo[2.2.1]hep-tan-2-yl)pyrimidine-4-carboxyamide], which Therapeutic index is on record?
Answer: 26.0

Question: For `CC1(C)C2CCC1(C)C(NC(=O)c1ccnc(Nc3cccc(NCC#N)c3)n1)C2` (centres unmarked) [Compound 118, 2-(3-(cianomethylamino)phenylami-no)-N-(1,7,7-trimethylbicyclo-[2.2.1]heptane-2-yl)pyrimidine-4-carboxyamide], which Therapeutic index is on record?
Answer: 22.4

Question: With `CC1(C)C2CCC1(C)C(NC(=O)c1ccnc(Nc3ccc(N4CCN(CCO)CC4)cc3)n1)C2` (centres unmarked) [Compound 108, 2-(4-(4-(2-hydroxyethyl)piperazin-1-yl)phenylamino)-N-(1,7,7-trimethylbicyclo[2.2.1]hep-tan-2-yl)pyrimidine-4-carboxyamide] as the compound, how does the Therapeutic index read?
Answer: 29.4

Question: Which Therapeutic index does the source give for `CCN(CC)CCOc1cc(Nc2nccc(C(=O)NC3CC4CCC3(C)C4(C)C)n2)ccc1OC` (centres unmarked) [Compound 106, 2-(3-(2-(diethylamino)ethoxy)-4-methoxyphenylamino)-N-(1,7,7-trimethylbicyclo[2.2.1]hep-tan-2-yl)pyrimidine-4-carboxyamide] here?
Answer: 67.6

Question: How did the Therapeutic index turn out when `CC(C)N1CCN(c2ccc(Nc3nccc(C(=O)NC4CC5CCC4(C)C5(C)C)n3)cc2)CC1` (centres unmarked) [Compound 109, 2-(4-(4-isopropylpiperazin-1-yl)phenylamino)-N-(1,7,7-trimethylbicyclo[2.2.1]hep-tan-2-yl)pyrimidine-4-carboxyamide] was run?
Answer: 8.4

Question: `CC(C)CN1CCN(c2ccc(Nc3nccc(C(=O)NC4CC5CCC4(C)C5(C)C)n3)cc2)CC1` (centres unmarked) [Compound 115, 2-(4-(4-isobutylpiperazin-1-yl)phenylamino)-N-(1,7,7-trimethylbicyclo-[2.2.1]heptan-2-yl)pyrimidine-4-carboxyamide] was tested. Which Therapeutic index did it give?
Answer: 32.4

Question: With `CC1(C)C2CCC1(C)C(NC(=O)c1ccnc(Nc3cccc(NCCCN4CCOCC4)c3)n1)C2` (centres unmarked) [Compound 98, 2-(3-(3-morpholinopropylamino)phenylamino)-N-(1,7,7-trimethylbicyclo[2.2.1]hep-tan-2-yl)pyrimidine-4-carboxyamide] as the compound, how does the Therapeutic index read?
Answer: 16.4

Question: Which Therapeutic index does the source give for `CCN1CCN(c2ccc(Nc3nccc(C(=O)NC4CC5CCC4(C)C5(C)C)n3)cc2)CC1` (centres unmarked) [Compound 105, 2-(4-(4-ethylpiperazin-1-yl)phenylamino)-N-(1,7,7-trimethylbicyclo[2.2.1]hep-tan-2-yl)pyrimidine-4-carboxyamide] here?
Answer: >100

Question: With `COc1ccc(Nc2nccc(C(=O)NC3CC4CCC3(C)C4(C)C)n2)cc1OCCN1CCCC1` (centres unmarked) [Compound 107, 2-(4-methoxy-3-(2-(pyrrolidin-1-yl)ethoxy)phenylamino)-N-(1,7,7-trimethylbicyclo[2.2.1]hep-tan-2-yl)pyrimidine-4-carboxyamide] as the compound, how does the Therapeutic index read?
Answer: 38.0

Question: For `CC1(C)C2CCC1(C)C(NC(=O)c1ccnc(Nc3ccc(N4CCN(CC#N)CC4)cc3)n1)C2` (centres unmarked) [Compound 116, 2-(4-(4-(cianomethyl)piperazin-1-yl)phenylamino)-N-(1,7,7-trimethylbicyclo [2.2.1]heptan-2-yl)pyrimidine-4-carboxyamide], which Therapeutic index is on record?
Answer: 15.6

Question: `CN(C)CCNc1ccc(Nc2nccc(C(=O)NC3CC4CCC3(C)C4(C)C)n2)cc1` (centres unmarked) [Compound 86] was tested. Which Therapeutic index did it give?
Answer: >83

From patent US20090227612A1, “Aminopyrimidine Derivatives Inhibiting Protein Kinase Activity, Method For The Preparation Thereof And Pharmaceutical Composition Containing Same” (priority 2005, published 2009)
